Reference: paper doi:10.1101/695700
Changes are numbered by the printed parent chain. These are yes or no findings as the source states them, for the method shown. Some results given as binding are weak or reduced against the parent protein; the word gives no strength.

Sequences of proteins named here, by UniProt entry; tags and fusion partners are left off. Residues count along the entry.
UniProt P04004, residues 20-478: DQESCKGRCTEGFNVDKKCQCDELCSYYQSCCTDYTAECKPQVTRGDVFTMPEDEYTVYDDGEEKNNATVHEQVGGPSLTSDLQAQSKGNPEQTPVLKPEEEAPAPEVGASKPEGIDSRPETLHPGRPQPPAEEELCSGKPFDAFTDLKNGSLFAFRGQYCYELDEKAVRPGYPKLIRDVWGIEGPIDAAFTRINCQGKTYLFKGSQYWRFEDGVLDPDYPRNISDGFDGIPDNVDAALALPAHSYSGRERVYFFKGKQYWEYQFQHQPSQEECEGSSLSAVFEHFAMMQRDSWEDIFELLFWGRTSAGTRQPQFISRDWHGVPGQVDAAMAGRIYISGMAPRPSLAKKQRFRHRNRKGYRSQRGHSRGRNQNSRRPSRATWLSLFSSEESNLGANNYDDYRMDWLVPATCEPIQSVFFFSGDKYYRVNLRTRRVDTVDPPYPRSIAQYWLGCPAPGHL

Key:
Test in all cases: SPR
[1] = molecular target: T1, rHC1 D298A (MIDAS site mutant) (human) (UniProt P19827)
T1 sequence: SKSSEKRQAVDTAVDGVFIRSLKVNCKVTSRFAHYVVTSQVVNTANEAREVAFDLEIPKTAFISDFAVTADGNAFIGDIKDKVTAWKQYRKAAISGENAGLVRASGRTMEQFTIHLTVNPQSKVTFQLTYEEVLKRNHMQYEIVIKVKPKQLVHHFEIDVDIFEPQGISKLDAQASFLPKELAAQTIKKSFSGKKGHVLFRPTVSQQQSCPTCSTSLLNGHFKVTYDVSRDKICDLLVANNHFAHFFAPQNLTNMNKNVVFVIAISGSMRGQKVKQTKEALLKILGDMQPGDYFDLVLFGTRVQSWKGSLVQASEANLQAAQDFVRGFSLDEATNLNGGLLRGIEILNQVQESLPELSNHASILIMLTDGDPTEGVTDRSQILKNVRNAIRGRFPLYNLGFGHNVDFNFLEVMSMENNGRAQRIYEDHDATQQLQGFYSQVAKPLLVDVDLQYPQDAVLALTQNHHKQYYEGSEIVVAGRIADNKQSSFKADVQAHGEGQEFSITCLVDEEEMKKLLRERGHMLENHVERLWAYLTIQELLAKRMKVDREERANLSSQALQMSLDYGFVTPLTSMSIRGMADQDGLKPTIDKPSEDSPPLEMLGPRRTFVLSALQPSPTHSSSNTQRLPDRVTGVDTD

[2] = molecular target: T2, recombinant HC1 (rHC1), wild type; heavy chain 1 of inter-α-inhibitor (human) (UniProt P19827)
T2 sequence: T1 sequence with A264D

[3] = molecular target: T3, rHC1 ΔvWFa mutant (lacking residues 288-478) (human) (UniProt P19827)
T3 sequence: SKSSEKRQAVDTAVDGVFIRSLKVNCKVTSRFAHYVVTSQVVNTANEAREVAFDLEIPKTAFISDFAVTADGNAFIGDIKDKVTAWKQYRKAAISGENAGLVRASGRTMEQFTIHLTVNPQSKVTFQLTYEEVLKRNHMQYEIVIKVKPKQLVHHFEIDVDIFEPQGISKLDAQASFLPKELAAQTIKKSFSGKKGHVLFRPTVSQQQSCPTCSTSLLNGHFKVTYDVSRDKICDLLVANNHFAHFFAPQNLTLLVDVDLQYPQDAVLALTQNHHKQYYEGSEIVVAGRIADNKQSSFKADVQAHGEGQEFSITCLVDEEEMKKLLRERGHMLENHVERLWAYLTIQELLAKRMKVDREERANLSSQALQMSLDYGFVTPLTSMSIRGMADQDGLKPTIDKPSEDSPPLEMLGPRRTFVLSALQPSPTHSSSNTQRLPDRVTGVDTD

binding [1]: binds
binding [2]: binds
binding [3]: binds
Substance: vitronectin (from UniProt P04004 20-478)
